For test [1], the target named is wild-type EGFR on F98EGFR cells (rat glioma F98 transfected with full-length EGFR) (UniProt P00533). Description: flow cytometry, F98-EGFR cells. (In general: In flow cytometry, cells or beads pass a laser one at a time.)
Test [2] has the same target. Description: flow cytometry on F98EGFR cells.
Test [3] deals with EGFR overexpressed on cancer cell lines MDA-MB-468 and A431 (human) (UniProt P00533). Description: flow cytometry on MDA-MB-468 cells; substantially similar result on A431 cells.
Test [4] concerns the target wild-type EGFR on F98EGFR cells (rat glioma F98 transfected with full-length EGFR) (UniProt P00533). Description: flow cytometry, hybridoma supernatant, F98EGFR cells, Median (PE-A).
Test [5] deals with EGFR overexpressed on cancer cell lines MDA-MB-468 and A431 (human) (UniProt P00533). The test is described as follows: flow cytometry, hybridoma supernatant, MDA-MB-468 cells, Geometric Mean (PE-A).

Positions count from the first letter of the chain named. Results are given in words; binding and its absence hold for the method and conditions named.

B1: monoclonal antibody 1D9 (antibody, V domains shown)
VH: QVQLKQSGRSLVQPSQSLSITCTVSGFSLTDYGVHWIRQSPGKGLEWLGVIWRSGRTDYNAVFMSRLSITKDNSKSQVFFKMNGLQTDDTAIYYCAKNGPFGNFAGYWGQGTPVAVSA
VL: DIVMSQSPSSLAVSVGEKVTMRCRSSQSLLDSYHQKNYLAWYLQKPGQSPKLLIYWASTRESGVPDRFTGSGSGTDFTLTISSVKAEDLAVYYCQEYYRYPYTFGGGTKLEIK
Regarding B1, the binding entry in test [1] is “no binding (tested: 2 µg/ml)”; in test [2] it was “no binding (tested: 2 µg/ml)”; in test [3], “no binding (tested: 2 µg/ml)”; in test [4], “no binding (tested: 1:10 dilution of supernatant)”.

B2: monoclonal antibody 4A4 (antibody, V domains shown)
VH: B1 VH with Q86L, T87I, D88E
VL: B1 VL with V91A
With B2, the binding result in test [5] is reported as “no binding (tested: 1:10 dilution of supernatant)”; in test [1], “no binding (tested: 2 µg/ml)”; in test [2], “no binding (tested: 2 µg/ml)”; in test [3], “no binding (tested: 2 µg/ml)”; in test [4], “no binding (tested: 1:10 dilution of supernatant)”.

The values are drawn from patent US20260193363A1.
